This note sets out measurements from article PMC3203945.

Sequences of proteins named here, by UniProt entry; tags and fusion partners are left off. A change or cut given only in a name is not applied to a line headed by its entry. A line that says so, or that is headed by a name, gives the form on record, which may keep a tag or linker.
UniProt P48432: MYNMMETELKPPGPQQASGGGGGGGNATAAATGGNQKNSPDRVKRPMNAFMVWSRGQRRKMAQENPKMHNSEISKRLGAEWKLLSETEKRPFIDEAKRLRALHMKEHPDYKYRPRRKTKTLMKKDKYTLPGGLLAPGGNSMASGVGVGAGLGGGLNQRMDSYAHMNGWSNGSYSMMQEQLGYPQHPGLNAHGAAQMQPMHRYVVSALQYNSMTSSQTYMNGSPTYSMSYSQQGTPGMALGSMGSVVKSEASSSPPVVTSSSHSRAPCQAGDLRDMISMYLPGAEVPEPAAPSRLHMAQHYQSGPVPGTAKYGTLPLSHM
FLAG-Sox2-mut-c (P48432, form named): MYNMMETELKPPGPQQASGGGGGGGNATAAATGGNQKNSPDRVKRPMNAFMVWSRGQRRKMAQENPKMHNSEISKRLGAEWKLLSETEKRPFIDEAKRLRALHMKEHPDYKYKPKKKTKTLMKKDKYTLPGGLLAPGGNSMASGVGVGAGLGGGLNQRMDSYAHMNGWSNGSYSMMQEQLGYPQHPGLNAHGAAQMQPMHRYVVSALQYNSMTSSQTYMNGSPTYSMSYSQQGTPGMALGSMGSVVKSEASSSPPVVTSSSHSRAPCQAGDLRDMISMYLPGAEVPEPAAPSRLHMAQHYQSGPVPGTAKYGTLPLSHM

These are yes or no findings as the source states them, for the method shown. Binding seen in cells or lysates may run through a third protein. Some entries that bind do so weakly or less than the wild type. For some assays here: Sequences can lack the tags named with a protein.

Test [1] has as its target T1, FLAG-CARM1 (coactivator-associated arginine methyltransferase 1), expressed in MCF7 cells (UniProt Q9WVG6).
T1 sequence: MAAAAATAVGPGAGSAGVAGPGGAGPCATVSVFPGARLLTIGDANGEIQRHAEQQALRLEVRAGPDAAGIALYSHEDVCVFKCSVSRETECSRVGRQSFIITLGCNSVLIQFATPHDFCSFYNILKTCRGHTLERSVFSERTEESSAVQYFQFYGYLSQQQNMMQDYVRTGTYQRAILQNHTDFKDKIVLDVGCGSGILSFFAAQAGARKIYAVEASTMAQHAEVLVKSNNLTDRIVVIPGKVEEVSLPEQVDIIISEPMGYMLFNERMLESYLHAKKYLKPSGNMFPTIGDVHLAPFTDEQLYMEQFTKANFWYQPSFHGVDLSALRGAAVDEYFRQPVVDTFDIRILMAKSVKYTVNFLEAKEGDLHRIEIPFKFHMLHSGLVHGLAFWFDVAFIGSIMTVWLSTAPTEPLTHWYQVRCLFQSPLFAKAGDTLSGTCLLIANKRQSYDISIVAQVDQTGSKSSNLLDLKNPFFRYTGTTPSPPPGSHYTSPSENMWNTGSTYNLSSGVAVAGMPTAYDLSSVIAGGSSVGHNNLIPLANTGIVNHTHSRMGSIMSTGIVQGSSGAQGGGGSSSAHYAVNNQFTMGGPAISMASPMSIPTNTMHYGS
The test can be described thus: co-IP; whole cell extracts of MCF7 cells transfected with FLAG-CARM1 and GFP-Sox2; immunoprecipitation with anti-FLAG, blot with anti-GFP or anti-FLAG; 0.2% NP-40 to lyse cells and wash beads.

The target of the next test is GST-Sox2 (UniProt P48432). Briefly: pull-down; bacterially expressed GST-Sox2 incubated with lysates of MCF7 cells expressing FLAG-Sox2 wild-type or mutant-c, with or without FLAG-CARM1; only the target purified.

Consider GFP-Sox2 (from UniProt P48432 1-319), for which the binding result in test [1] was “binds”.

As for “FLAG-Sox2-mut-c (from UniProt P48432 1-319)”, the binding entry with GST-Sox2 is reported as “binds”.
